# Measurements reported in patent US20230138225A1, “PYRAZOLE CARBOXYLATE ESTER COMPOUND AND USE THEREOF” (SHENYANG SINOCHEM AGROCHEMICALS R&D CO., LTD., priority 2020, published 2023).
# Some results were stated once for a whole list of compounds, not compound by compound.
# Tested on: Zinnia elegans Jacq., Abutilon theophrasti Medic., Setaria glauca (L.) Beauv. or Echinochloa crusgalli (L.) Beauv.
# Experiment: Herbicidal activity, post-emergence, summary statement over the four test weeds
# Assay type: in vivo
# Conditions: application dose 600 g a.i./hm^2, on Zinnia elegans, post-emergence spray
row,Structure (SMILES),growth inhibition rates
1,CCn1nc(C(=O)Oc2c(C(=O)c3ccc(S(C)(=O)=O)c(OC)c3C)c(C)nn2C)cc1C [Compound 1-1],greater than or equal to 90%
2,CCOc1c(S(C)(=O)=O)ccc(C(=O)c2c(C)nn(C)c2OC(=O)c2cc(C)n(CC)n2)c1C [Compound 1-10],greater than or equal to 90%
3,CCn1nc(C(=O)Oc2c(C(=O)c3ccc(S(C)(=O)=O)c(OCC4CC4)c3C)c(C)nn2C)cc1C [Compound 1-20],greater than or equal to 90%
4,C=CCOc1c(S(C)(=O)=O)ccc(C(=O)c2c(C)nn(C)c2OC(=O)c2cc(C)n(CC)n2)c1C [Compound 1-26],greater than or equal to 90%
5,C#CCOc1c(S(C)(=O)=O)ccc(C(=O)c2c(C)nn(C)c2OC(=O)c2cc(C)n(CC)n2)c1C [Compound 1-27],greater than or equal to 90%
6,CCn1nc(C(=O)Oc2c(C(=O)c3ccc(S(C)(=O)=O)c(OCC(F)(F)F)c3C)c(C)nn2C)cc1C [Compound 1-30],greater than or equal to 90%
7,CCn1nc(C(=O)Oc2c(C(=O)c3ccc(S(C)(=O)=O)c(OCCOC)c3C)cnn2C)cc1C [Compound 1-31],greater than or equal to 90%
8,CCn1nc(C(=O)Oc2c(C(=O)c3ccc(S(C)(=O)=O)c(OCCOC)c3C)cnn2CC)cc1C [Compound 1-32],greater than or equal to 90%
9,CCn1nc(C(=O)Oc2c(C(=O)c3ccc(S(C)(=O)=O)c(OCCOC)c3C)c(C)nn2C)cc1C [Compound 1-33],greater than or equal to 90%
10,CCn1nc(C(=O)Oc2c(C(=O)c3ccc(S(C)(=O)=O)c(OCCOC)c3C)c(C)nn2C(C)C)cc1C [Compound 1-34],greater than or equal to 90%
11,CCc1nn(C)c(OC(=O)c2cc(C)n(CC)n2)c1C(=O)c1ccc(S(C)(=O)=O)c(OCCOC)c1C [Compound 1-36],greater than or equal to 90%
12,CCn1nc(C(=O)Oc2c(C(=O)c3ccc(S(C)(=O)=O)c(OCCOC)c3C)c(C)nn2CC)cc1C [Compound 1-37],greater than or equal to 90%
13,CCn1nc(C(=O)Oc2c(C(=O)c3ccc(S(C)(=O)=O)c(OCCOC)c3C)c(C(C)C)nn2C)cc1C [Compound 1-38],greater than or equal to 90%
14,CCn1nc(C(=O)Oc2c(C(=O)c3ccc(S(C)(=O)=O)c(OCCOC)c3C)c(C3CC3)nn2C)cc1C [Compound 1-39],greater than or equal to 90%
15,CCOCCOc1c(S(C)(=O)=O)ccc(C(=O)c2c(C)nn(C)c2OC(=O)c2cc(C)n(CC)n2)c1C [Compound 1-44],greater than or equal to 90%
16,CCn1nc(C(=O)Oc2c(C(=O)c3ccc(S(C)(=O)=O)c(OCCCOC)c3C)c(C)nn2C)cc1C [Compound 1-48],greater than or equal to 90%
17,CCn1nc(C(=O)Oc2c(C(=O)c3ccc(S(C)(=O)=O)c(OCCCCOC)c3C)c(C)nn2C)cc1C [Compound 1-53],greater than or equal to 90%
18,CCn1nc(C(=O)Oc2c(C(=O)c3ccc(S(C)(=O)=O)c(OCC4CCCO4)c3C)c(C)nn2C)cc1C (stereo not drawn) [Compound 1-55],greater than or equal to 90%
19,CCn1nc(C(=O)Oc2c(C(=O)c3ccc(S(C)(=O)=O)c(OC)c3Cl)c(C)nn2C)cc1C [Compound 1-60],greater than or equal to 90%
20,CCOc1c(S(C)(=O)=O)ccc(C(=O)c2cnn(C)c2OC(=O)c2cc(C)n(CC)n2)c1Cl [Compound 1-65],greater than or equal to 90%
21,CCOc1c(S(C)(=O)=O)ccc(C(=O)c2c(C)nn(C)c2OC(=O)c2cc(C)n(CC)n2)c1Cl [Compound 1-66],greater than or equal to 90%

row,Structure (SMILES),growth inhibition rates
1,CCOc1c(S(C)(=O)=O)ccc(C(=O)c2cnn(CC)c2OC(=O)c2cc(C)n(CC)n2)c1Cl [Compound 1-67],greater than or equal to 90%
2,CCn1nc(C(=O)Oc2c(C(=O)c3ccc(S(C)(=O)=O)c(OCC4CC4)c3Cl)c(C)nn2C)cc1C [Compound 1-76],greater than or equal to 90%
3,C=CCOc1c(S(C)(=O)=O)ccc(C(=O)c2c(C)nn(C)c2OC(=O)c2cc(C)n(CC)n2)c1Cl [Compound 1-82],greater than or equal to 90%
4,C#CCOc1c(S(C)(=O)=O)ccc(C(=O)c2c(C)nn(C)c2OC(=O)c2cc(C)n(CC)n2)c1Cl [Compound 1-83],greater than or equal to 90%
5,CCn1nc(C(=O)Oc2c(C(=O)c3ccc(S(C)(=O)=O)c(OCCOC)c3Cl)c(C)nn2C)cc1C [Compound 1-88],greater than or equal to 90%
6,CCOCCOc1c(S(C)(=O)=O)ccc(C(=O)c2c(C)nn(C)c2OC(=O)c2cc(C)n(CC)n2)c1Cl [Compound 1-93],greater than or equal to 90%
7,CCn1nc(C(=O)Oc2c(C(=O)c3ccc(S(C)(=O)=O)c(OCCCOC)c3Cl)c(C)nn2C)cc1C [Compound 1-95],greater than or equal to 90%
8,CCn1nc(C(=O)Oc2c(C(=O)c3ccc(S(C)(=O)=O)c(OCCCCOC)c3Cl)c(C)nn2C)cc1C [Compound 1-100],greater than or equal to 90%
9,CCn1nc(C(=O)Oc2c(C(=O)c3ccc(S(C)(=O)=O)c(OCC4CCCO4)c3Cl)c(C)nn2C)cc1C (stereo not drawn) [Compound 1-102],greater than or equal to 90%
10,CCn1nc(C)cc1C(=O)Oc1c(C(=O)c2ccc(S(C)(=O)=O)c(OCCOC)c2C)cnn1CC [Compound 1-139],greater than or equal to 90%
11,CCn1nc(C)cc1C(=O)Oc1c(C(=O)c2ccc(S(C)(=O)=O)c(OCCOC)c2C)c(C)nn1C [Compound 1-140],greater than or equal to 90%
12,CCn1nc(C)cc1C(=O)Oc1c(C(=O)c2ccc(S(C)(=O)=O)c(OC)c2Cl)c(C)nn1C [Compound 1-167],greater than or equal to 90%
13,CCn1nc(C)cc1C(=O)Oc1c(C(=O)c2ccc(S(C)(=O)=O)c(OC)c2Cl)cnn1CC [Compound 1-168],greater than or equal to 90%
14,CCOc1c(S(C)(=O)=O)ccc(C(=O)c2c(C)nn(C)c2OC(=O)c2cc(C)nn2CC)c1Cl [Compound 1-173],greater than or equal to 90%
15,CCn1nc(C)cc1C(=O)Oc1c(C(=O)c2ccc(S(C)(=O)=O)c(OC(C)C)c2Cl)c(C)nn1C [Compound 1-179],greater than or equal to 90%
16,CCn1nc(C)cc1C(=O)Oc1c(C(=O)c2ccc(S(C)(=O)=O)c(OCC3CC3)c2Cl)c(C)nn1C [Compound 1-181],greater than or equal to 90%
17,C=CCOc1c(S(C)(=O)=O)ccc(C(=O)c2c(C)nn(C)c2OC(=O)c2cc(C)nn2CC)c1Cl [Compound 1-187],greater than or equal to 90%
18,CCn1nc(C)cc1C(=O)Oc1c(C(=O)c2ccc(S(C)(=O)=O)c(OCCOC)c2Cl)c(C)nn1C [Compound 1-193],greater than or equal to 90%
19,CCOCCOc1c(S(C)(=O)=O)ccc(C(=O)c2c(C)nn(C)c2OC(=O)c2cc(C)nn2CC)c1Cl [Compound 1-198],greater than or equal to 90%
20,CCn1nc(C)cc1C(=O)Oc1c(C(=O)c2ccc(S(C)(=O)=O)c(OCCCOC)c2Cl)c(C)nn1C [Compound 1-200],greater than or equal to 90%
21,CCn1nc(C)cc1C(=O)Oc1c(C(=O)c2ccc(S(C)(=O)=O)c(OCCCCOC)c2Cl)c(C)nn1C [Compound 1-205],greater than or equal to 90%
